## Primary screen of a compound library

Protein sequences, listed by entry. Tags and fused reporters are not part of them.
UniProt P9WNZ1, whole entry: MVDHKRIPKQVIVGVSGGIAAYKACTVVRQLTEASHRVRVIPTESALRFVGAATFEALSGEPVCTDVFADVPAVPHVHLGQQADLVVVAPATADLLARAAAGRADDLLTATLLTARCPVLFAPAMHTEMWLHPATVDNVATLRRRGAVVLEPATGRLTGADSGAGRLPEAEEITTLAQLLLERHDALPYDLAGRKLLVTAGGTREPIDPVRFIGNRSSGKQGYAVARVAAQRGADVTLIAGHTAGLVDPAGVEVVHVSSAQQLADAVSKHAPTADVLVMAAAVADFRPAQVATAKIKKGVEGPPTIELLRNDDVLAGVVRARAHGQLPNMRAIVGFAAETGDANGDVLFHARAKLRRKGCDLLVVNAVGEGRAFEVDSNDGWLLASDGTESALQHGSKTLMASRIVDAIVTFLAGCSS

From ChEMBL document CHEMBL3988442, “University of Dundee, Small-Polar-MMV Screening Library” (2021).

Leishmania in macrophages: 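Cell assay of Leishmania donovani living inside macrophages; the read-out is not stated. Compounds at 30 µM. The record gives no direction; compounds that gave an IC50 in retests scored well above the rest, so higher reads as stronger inhibition. Of about 69,000 compounds tested this way, about 1,000 (1.5%) reached 50% or more in at least one test.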
CoaBC: 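Coenzyme A biosynthesis protein CoaBC, Mycobacterium tuberculosis (UniProt P9WNZ1). Enzyme assay of CoaBC with a phosphate dye (Biomol Green) read at 650 nm. Concentration: 30 µM. Direction is inferred from only a few compounds that gave an IC50; most scored high, so higher reads as stronger inhibition. Most strong results did not repeat in a second test. About 67,000 compounds were tested under these conditions; 0.06% (about 40) showed 50% or more at least once.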

Results are given as percent effect.
The record does not define 0% and 100%; most values in the screen are far below 50% and negative numbers occur (in some assays of this library far below -100).
Compounds were drawn at random from those tested, without regard to their results.

* CN1CCC(CNC(=O)NCc2ccc(F)cc2)CC1 | Leishmania in macrophages: 25.89%; CoaBC: 0.1272%
* CCC1c2ccsc2CCN1C(=O)NCCc1ccccn1 (stereo unspecified) | Leishmania in macrophages: 27.25%; CoaBC: 5.789%
* CCN(CC)CCCN1CCN(c2nc(C)cnc2C)CC1 | Leishmania in macrophages: 6.485%; CoaBC: -7.127%
* O=C(NC[C@H]1C[C@@H]2CCN1C[C@@H]2CN1CCOCC1)Nc1ccccc1 | CoaBC: -2.483%
* O=C(c1ccco1)N(CC(F)(F)F)C1CCCOC1 (stereo unspecified) | Leishmania in macrophages: 7.819%; CoaBC: 4.622%
* O=c1ccc2c(n1Cc1ccncc1)CCN(Cc1ccoc1)CC2 | CoaBC: 4.685%
* O=C(NCc1ccc(-n2cncn2)nc1)c1ccc2c(c1)CCO2 | Leishmania in macrophages: -12.53%; CoaBC: 6.05%
* Cc1ccc(CN2CCOC3(CCCN(c4cccc(F)c4)C3)C2)o1.O=C(O)C(F)(F)F.O=C(O)C(F)(F)F (stereo unspecified) | Leishmania in macrophages: 23.02%
* Cc1cnn(CC2CCCN2Cc2nnc(C3CC3)o2)c1 (stereo unspecified) | Leishmania in macrophages: 10.44%; CoaBC: 9.211%
* [H][C@@]12OCCN(C(=O)C3=CCCC3)[C@@]1([H])CC[C@H]2OC | Leishmania in macrophages: 7.605%
* OC1(CNc2ccc(Br)cn2)CCC1 | Leishmania in macrophages: 7.885%; CoaBC: -5.217%
* CN(C)C(CNC(=O)c1cccc(-n2cnnn2)c1)c1ccccc1Cl (stereo unspecified) | Leishmania in macrophages: -12.85%; CoaBC: 1.066%
* COCCNC(C)c1ccc(-c2cccnc2)cc1 (stereo unspecified) | Leishmania in macrophages: 4.249%; CoaBC: 3.241%
* c1ccc(OCc2nnc3n2CCN(CC2CCOCC2)C3)nc1 | CoaBC: 2.445%
* Cc1nc(N2CCOc3ccc(CO)cc3C2)c2c(C)noc2n1 | Leishmania in macrophages: 9.901%; CoaBC: -2.581%
* N#Cc1ccnc(N2CCN(CC(O)c3ccc(F)cc3)CC2)c1 (stereo unspecified) | Leishmania in macrophages: 6.775%; CoaBC: -11.24%
* CCOc1ccc(NC(C)C(=O)NCCc2cccs2)cc1CO (stereo unspecified) | Leishmania in macrophages: 12.17%; CoaBC: -5.379%
* COc1cccc(-n2cc(CN(C)C(=O)c3cc[nH]n3)cn2)c1 | Leishmania in macrophages: 2.181%
* CN(C)S(=O)(=O)N1CC(c2ccnc(Nc3ccccn3)n2)C1 | Leishmania in macrophages: 15.78%; CoaBC: -2.427%
* CN(C)S(=O)(=O)N1CCN(c2nccc(C(F)(F)F)n2)CC1 | Leishmania in macrophages: 18.61%; CoaBC: 6.61%
* O=C(O)C(F)(F)F.O=C(O)C(F)(F)F.[H][C@@]12CN(Cc3ccoc3)C[C@]1([H])C(=O)N(CCN1CCCC1)C2 | Leishmania in macrophages: 12.47%
* Cc1nn(C)c(N(C)C)c1CNCCCN(C)S(C)(=O)=O | Leishmania in macrophages: 3.719%; CoaBC: 3.368%
* O=C(O)C(F)(F)F.O=C(O)C(F)(F)F.[H][C@@]12CCN(C(=O)CC(C)C)CC[C@]1(C(=O)Nc1cccnc1)CCN2C | Leishmania in macrophages: 30.49%
* CC(C)c1nc(C(=O)N2CCCC(n3cncn3)C2)c[nH]1 (stereo unspecified) | Leishmania in macrophages: -20.9%; CoaBC: 2.611%
* CN(Cc1ccsc1)C(=O)Nc1cccc(N2CCOC2=O)c1 | Leishmania in macrophages: -21.66%